These are yes or no findings as the source states them, for the method shown. Binding can be weak; no strength is given.
molecular target: SUMO-tagged ACR4 KC with the LLSLL motif replaced with Ala (sACR4 KC-AAAAA) (Arabidopsis); experiment: peptide binding assay on nickel coated plates (streptavidin-alkaline phosphatase, A405); ~1 μM protein immobilised by its His tag on a 96 well nickel coated plate in TBS + 0.1% Tween20; 200 μM biotinylated peptide, 2 h room temperature; SUMO well subtracted; both purified

binding | Binder
binds | HRRADKDSAFVNELES (biotin tag at the amino terminus) [CRK1 hC peptide (helix-C region of the CRK1 kinase domain)]
binds | DTRSSKDSAFTKDNG (biotin tag at the amino terminus) [JMD1 peptide of the ACR4 juxtamembrane domain]
binds | DTRSSKDSAFTKDNG (phosphoserine at 475) [pJMD1 peptide (JMD1 with phosphorylated Ser475)]

From PMC4355418
